This is an account of results in paper PMC5343618.

No constants are given. Whether binding was seen depends on the method and setting.

The target in experiment [1] is elongation factor G (FusA) (B. subtilis 168) (UniProt P80868). The experiment in a line: native gel or EMSA; blue native PAGE (BN-PAGE) of the soluble cytoplasmic fraction and the culture supernatant of B. subtilis after 24 h of cultivation; non-reducing sample buffer, Coomassie blue; mass estimated within ±15%.
The target in experiment [2] is enolase (Eno) (B. subtilis 168) (UniProt P37869). The experiment is described as above.

For the substance “elongation factor G (FusA) (from UniProt P80868 1-692)”, the binding entry in experiment [1] is “no binding”.

As for “enolase (Eno) (from UniProt P37869 1-430) (enzyme)”, the binding entry in experiment [2] is “no binding”.
